# Source: PubChem BioAssay (NCATS)
# Protein sequences, listed by entry. Tags and fused reporters are not part of them. Lines headed by an entry give the natural chain unless they say otherwise; changes in a name come on top.
# UniProt Q8NER1, whole entry, looked up: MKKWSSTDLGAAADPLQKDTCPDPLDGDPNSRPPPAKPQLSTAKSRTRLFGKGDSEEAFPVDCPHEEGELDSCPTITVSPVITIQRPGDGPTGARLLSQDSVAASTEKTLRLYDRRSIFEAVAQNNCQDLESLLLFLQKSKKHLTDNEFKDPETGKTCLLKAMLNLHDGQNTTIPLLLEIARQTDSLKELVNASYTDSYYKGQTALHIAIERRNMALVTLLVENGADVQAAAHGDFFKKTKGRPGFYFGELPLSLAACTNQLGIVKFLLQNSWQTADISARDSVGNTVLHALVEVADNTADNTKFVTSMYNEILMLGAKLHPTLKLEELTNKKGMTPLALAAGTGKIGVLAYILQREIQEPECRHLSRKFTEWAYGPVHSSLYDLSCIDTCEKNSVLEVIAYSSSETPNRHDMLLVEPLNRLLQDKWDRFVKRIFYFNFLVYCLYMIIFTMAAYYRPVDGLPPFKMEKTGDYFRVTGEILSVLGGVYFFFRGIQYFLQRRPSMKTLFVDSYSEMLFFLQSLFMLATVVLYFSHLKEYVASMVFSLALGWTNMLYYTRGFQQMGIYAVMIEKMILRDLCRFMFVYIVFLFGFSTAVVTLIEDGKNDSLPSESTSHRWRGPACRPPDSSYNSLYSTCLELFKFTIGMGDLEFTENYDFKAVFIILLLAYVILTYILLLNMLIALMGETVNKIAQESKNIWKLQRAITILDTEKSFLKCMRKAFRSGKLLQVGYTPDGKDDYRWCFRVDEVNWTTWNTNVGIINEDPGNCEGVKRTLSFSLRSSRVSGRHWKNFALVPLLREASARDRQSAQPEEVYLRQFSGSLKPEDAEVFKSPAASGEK
# UniProt P16066: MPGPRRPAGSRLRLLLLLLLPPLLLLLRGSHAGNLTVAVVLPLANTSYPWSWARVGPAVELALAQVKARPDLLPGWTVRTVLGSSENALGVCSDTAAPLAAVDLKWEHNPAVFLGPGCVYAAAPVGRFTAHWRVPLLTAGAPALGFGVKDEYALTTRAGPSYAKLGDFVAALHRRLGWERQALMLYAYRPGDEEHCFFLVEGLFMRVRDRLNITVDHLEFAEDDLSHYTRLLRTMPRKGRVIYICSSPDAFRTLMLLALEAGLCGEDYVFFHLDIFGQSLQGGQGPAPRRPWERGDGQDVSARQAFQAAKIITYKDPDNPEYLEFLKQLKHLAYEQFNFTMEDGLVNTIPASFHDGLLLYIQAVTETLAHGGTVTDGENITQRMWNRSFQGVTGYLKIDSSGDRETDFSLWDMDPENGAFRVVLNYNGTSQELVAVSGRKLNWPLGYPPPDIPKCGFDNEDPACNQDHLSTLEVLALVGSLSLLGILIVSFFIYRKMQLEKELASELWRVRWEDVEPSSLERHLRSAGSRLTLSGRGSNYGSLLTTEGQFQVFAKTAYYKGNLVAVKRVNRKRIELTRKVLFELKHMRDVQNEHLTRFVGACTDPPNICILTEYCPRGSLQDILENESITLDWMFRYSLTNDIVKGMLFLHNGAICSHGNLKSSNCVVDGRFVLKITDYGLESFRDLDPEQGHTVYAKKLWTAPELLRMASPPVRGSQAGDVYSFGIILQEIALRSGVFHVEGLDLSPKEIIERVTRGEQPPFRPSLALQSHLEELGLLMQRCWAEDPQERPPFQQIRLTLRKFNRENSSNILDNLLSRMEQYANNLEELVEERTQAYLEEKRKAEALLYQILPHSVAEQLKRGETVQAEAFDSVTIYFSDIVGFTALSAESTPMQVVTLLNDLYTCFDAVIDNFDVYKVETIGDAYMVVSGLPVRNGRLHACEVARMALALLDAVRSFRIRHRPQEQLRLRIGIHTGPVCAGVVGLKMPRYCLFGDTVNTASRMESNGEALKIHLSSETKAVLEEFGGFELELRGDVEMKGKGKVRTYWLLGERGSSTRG
# UniProt P20594: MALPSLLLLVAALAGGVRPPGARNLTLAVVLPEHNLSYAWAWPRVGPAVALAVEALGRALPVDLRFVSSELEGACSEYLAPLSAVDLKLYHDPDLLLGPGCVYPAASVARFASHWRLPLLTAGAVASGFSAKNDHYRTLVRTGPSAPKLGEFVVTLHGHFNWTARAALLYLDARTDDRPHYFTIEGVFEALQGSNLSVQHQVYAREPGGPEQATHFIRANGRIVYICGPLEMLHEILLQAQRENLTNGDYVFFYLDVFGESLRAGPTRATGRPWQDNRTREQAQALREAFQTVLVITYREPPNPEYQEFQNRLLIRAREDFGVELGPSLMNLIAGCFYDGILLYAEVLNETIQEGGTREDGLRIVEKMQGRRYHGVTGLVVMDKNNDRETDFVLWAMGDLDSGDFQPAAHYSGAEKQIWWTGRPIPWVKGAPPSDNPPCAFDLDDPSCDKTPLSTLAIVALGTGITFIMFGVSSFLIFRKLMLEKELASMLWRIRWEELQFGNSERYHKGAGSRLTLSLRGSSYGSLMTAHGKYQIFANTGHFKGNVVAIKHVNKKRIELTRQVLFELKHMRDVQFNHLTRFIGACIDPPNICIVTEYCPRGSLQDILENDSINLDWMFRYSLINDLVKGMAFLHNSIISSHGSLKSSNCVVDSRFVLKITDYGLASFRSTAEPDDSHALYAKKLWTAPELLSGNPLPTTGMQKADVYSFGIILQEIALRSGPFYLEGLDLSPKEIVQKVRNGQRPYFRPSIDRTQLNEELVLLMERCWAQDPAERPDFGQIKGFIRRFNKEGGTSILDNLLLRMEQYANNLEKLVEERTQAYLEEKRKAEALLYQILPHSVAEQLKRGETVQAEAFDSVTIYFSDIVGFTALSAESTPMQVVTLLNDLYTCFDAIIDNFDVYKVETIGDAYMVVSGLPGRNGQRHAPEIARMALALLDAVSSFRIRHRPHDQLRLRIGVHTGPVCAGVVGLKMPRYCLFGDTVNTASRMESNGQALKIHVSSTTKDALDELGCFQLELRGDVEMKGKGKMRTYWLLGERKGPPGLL
# UniProt Q9UGL1: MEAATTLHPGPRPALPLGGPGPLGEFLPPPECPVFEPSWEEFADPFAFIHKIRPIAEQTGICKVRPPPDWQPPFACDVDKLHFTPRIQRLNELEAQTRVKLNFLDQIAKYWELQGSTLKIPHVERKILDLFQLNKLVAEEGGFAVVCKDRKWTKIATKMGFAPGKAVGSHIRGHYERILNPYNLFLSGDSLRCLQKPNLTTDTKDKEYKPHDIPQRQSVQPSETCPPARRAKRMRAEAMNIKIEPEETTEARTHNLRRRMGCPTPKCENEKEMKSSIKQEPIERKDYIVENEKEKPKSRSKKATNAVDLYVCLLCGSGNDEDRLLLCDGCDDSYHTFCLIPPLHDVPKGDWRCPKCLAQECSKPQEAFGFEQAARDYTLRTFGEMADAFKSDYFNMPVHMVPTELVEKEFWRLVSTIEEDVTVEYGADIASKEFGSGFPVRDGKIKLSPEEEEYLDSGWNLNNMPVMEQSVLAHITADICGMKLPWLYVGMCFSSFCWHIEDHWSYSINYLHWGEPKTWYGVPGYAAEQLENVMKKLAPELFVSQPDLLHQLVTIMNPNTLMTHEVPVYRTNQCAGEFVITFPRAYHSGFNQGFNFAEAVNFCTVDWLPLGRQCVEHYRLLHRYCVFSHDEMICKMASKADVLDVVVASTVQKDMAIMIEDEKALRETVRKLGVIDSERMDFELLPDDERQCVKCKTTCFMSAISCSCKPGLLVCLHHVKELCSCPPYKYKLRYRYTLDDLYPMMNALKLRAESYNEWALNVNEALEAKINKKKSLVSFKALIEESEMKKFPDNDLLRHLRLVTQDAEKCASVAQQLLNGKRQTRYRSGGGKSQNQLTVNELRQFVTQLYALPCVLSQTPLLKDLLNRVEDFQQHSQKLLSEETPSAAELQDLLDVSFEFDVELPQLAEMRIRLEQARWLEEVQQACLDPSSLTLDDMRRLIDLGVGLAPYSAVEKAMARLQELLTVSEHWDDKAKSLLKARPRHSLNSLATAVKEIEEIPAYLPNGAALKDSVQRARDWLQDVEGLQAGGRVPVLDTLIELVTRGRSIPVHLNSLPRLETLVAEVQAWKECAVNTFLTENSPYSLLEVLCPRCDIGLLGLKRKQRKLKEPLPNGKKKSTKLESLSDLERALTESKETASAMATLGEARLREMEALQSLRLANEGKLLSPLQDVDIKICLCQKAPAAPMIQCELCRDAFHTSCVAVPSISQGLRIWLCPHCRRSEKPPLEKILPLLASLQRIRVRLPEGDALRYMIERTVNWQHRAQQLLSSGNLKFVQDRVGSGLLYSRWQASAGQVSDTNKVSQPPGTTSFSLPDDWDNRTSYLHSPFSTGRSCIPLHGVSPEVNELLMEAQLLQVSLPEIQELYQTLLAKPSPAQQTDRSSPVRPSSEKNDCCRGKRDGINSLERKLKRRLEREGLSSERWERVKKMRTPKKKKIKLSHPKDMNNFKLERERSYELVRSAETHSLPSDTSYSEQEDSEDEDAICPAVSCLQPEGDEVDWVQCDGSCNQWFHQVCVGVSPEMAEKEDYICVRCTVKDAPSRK
# UniProt Q6LX38: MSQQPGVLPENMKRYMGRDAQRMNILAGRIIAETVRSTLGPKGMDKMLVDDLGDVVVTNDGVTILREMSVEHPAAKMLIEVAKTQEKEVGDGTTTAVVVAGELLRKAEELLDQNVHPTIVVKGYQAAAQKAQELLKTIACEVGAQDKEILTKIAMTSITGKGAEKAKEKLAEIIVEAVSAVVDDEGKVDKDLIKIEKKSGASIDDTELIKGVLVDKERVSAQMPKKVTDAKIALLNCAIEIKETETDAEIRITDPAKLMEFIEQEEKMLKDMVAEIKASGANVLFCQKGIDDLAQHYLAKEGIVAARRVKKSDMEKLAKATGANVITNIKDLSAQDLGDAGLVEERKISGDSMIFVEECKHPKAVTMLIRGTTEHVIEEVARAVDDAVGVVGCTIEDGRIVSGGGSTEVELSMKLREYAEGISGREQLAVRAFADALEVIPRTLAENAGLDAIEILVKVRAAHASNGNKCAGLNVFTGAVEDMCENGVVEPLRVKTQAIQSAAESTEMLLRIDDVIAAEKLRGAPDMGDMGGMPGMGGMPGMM
# UniProt Q13526, whole entry, looked up: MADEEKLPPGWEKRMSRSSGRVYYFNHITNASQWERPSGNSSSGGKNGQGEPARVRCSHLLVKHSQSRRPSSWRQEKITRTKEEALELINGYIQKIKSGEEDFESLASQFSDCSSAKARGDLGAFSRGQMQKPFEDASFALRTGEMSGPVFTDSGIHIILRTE
# Inconclusive means that the source gave no clear call. Such entries were picked first, then a sample of the others. For some assays here: Potencies beside an inconclusive call are fits to weak or partial responses and may not hold up. For some assays here: A note “side channel” means that the fit belongs to a control or component signal, not to the main read-out. The source made the active and inactive calls. Unless noted, calls follow the shape of the dose curve; as a rule, active = well fitted curve in the direction sought with a large enough effect; inconclusive = small, poorly fitted or top-dose-only effect, or another doubt; inactive = no such curve, though single readings can be large; an effect the other way counts as inactive or inconclusive.
# Legend:
# [1] = target: Transient receptor potential cation channel subfamily V member 1 (Homo sapiens) (UniProt Q8NER1); assay: HTS Assay for Compounds that Act as Enhancers of the Vanilloid Receptor 1 (AID 488979); conditions: TRPV1-expressing cells, enhancer of channel activity; series mostly up to 41.7 µM
# Summary of the method: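 TRPV1-expressing cells loaded with Fluo-8 calcium dye; compounds added and calcium influx read kinetically for 3 min (agonist phase), then capsaicin at EC20 added and read 2 min more for enhancement. Fluorescence ex 480/em 520 nm.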
# [2] = target: Atrial natriuretic peptide receptor 1 (Homo sapiens) (UniProt P16066); assay: Natriuretic polypeptide receptor (hNpr1) antagonism - Pilot screen (AID 1347049; calls by dose curve;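 also: HEK293 cells with hNpr1 and GloSensor cGMP luciferase stimulated by 0.1 nM hNppA; agonist-evoked cGMP luminescence read 20 min after hNppA addition; % is scaled to controls: 0 for no effect and ±100 for the full control effect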); conditions: hNpr1 cells, antagonist mode cGMP read-out; series mostly up to 57.5 µM
# Summary of the method: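 Cells expressing receptor plus cGMP biosensor are seeded and incubated overnight at 37C, then loaded with GloSensor reagent (2% final) at room temperature for 2 h. Library compounds go on for 30 min. A pre-read precedes agonist (hNppA, 0.1 nM final) and a 20-min readout.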
# [3] = target: Atrial natriuretic peptide receptor 2 (Homo sapiens) (UniProt P20594); assay: Natriuretic polypeptide receptor (hNpr2) antagonism - Pilot subtype selectivity assay (AID 1347050; calls by dose curve; also: potency is read from the fitted curve at half-maximal effect); conditions: NPR2-expressing cells, cGMP antagonist-mode read-out; series mostly up to 38.3 µM
# Summary of the method: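 Read-out: GloSensor luminescence (CCD imager), baseline vs post-stimulation. HEK293 cells expressing hNpr2; compounds pre-incubated 30-50 min at ambient temperature; hNppC 1 nM final, 20 min.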
# [4] = target: Lysine-specific demethylase 5B (Homo sapiens) (UniProt Q9UGL1); assay: Optimization screen for KDM5B Histone Demethylases FDH coupled qHTS against the LOPAC library (AID 1347166); conditions: KDM5B demethylation, FDH-coupled NADH fluorescence; activity, negative = inhibition: at 57.5 µM (top of the series) unless noted; also: potency is read from the fitted curve at half-maximal effect
# Summary of the method: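 KDM5BDeltaAP (200nM final) in 50mM HEPES pH 7.5, 0.01% Tween-20 was preincubated with compound for 10 min at room temperature. A substrate mix of 12.5uM H3K4Me3, 25uM a-ketoglutarate, ascorbate, Fe2+, NAD+ and formaldehyde dehydrogenase was then added. NADH fluorescence (340/450 nm) was read initially and after 30 min.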
# [5] = Validation qHTS assay for inhibitors of Activation Induced Cytidine Deaminase (AID): UDG Counterscreen signal (AID 1347427); conditions: biochemical UDG counterscreen, fluorescence signal; series mostly up to 115 µM; also: 0% is about no effect
# Summary of the method: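 Fluorescence at 560 nm excitation, 665 nm emission reports UDG signal after 250 mM NaOH (2x) addition and 30 min. Enzymes (AID 1 uM, UDG 2 U/mL, at 4/3x) preincubated 10 min with compound, then 4 h with 4x 250 nM DJC20/DJC23 substrate at room temperature.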
# [6] = Cytotoxicity counterscreen for inhibitors of SARS-CoV-2 cell entry (AID 1645845; calls by dose curve; also: nearly all actives have a fitted effect of over 50% in size); conditions: cell viability (SARS-CoV-2 entry assay cells); activity change, negative = cytotoxicity: at 57.1 µM (top of the series) unless noted; series mostly up to 57.1 µM
# Summary of the method: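 After a 15 min room-temperature ATPLite 1step step, luminescence reflected ATP remaining in HEK293-ACE2 cells exposed to compound for 1 h plus 48 h at 37 C, with percent activity set by cell and no-cell controls.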
# [7] = AP1 Signaling Pathway (AID 357; active = well fitted curve in either direction with a large enough effect, not every such curve was filed as active; inconclusive = small, poorly fitted or top-dose-only effect, or another doubt;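 also: ME-180 reporter cells stimulated with EGF at its EC50 level; % is scaled to controls: 0 for no effect and ±100 for the full control effect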); conditions: ME-180 AP-1-bla reporter, EGF-induced, beta-lactamase ratio, 5 h; at 17.2 µM (top of the series) unless noted
# Summary of the method: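 Beta-lactamase reporter under AP-1 response element, ME-180 background. Stimulus: EC50 EGF. Compound exposure 5 h, 37 °C. Detection: CCF4, 2.5 h RT, 460/530 nm. Values: AC50 from titration.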
# [8] = qHTS Assay for Identification of Small Molecule Agonists for Hypoxia Response Element Signaling Pathway (AID 914; active = well fitted activation curve with a large enough effect in the signal ratio, with a control signal flat, not every such curve was filed as active; inconclusive = small, poorly fitted or top-dose-only effect, or effect the other way, or a change in a side signal; the % refers to the signal ratio; also: potency is read from the fitted curve at half-maximal effect); conditions: ME-180 (cervical carcinoma) HRE-bla reporter, beta-lactamase ratio, CoCl2, 17 h; activation: active compounds read high
# Summary of the method: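 Compounds in a titration series were added to ME-180 reporter cells alongside an EC50 level of CoCl2. After 17 hours, beta-lactamase activity was read as the 460nm/530nm emission ratio of CCF4, giving AC50 values.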
# [9] = system: Zika virus NS2B-NS3 protease; assay: Primary screen GU AMC qHTS for Zika virus inhibitors (AID 1347154); conditions: Zika NS2B-NS3 unlinked protease, AMC fluorogenic substrate; series mostly up to 54.1 µM; also: potency is read from the fitted curve at half-maximal effect; nearly all actives have a fitted effect of over 70% in size
# Summary of the method: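 Unlinked Zika NS2B hydrophilic domain/NS3 protease domain noncovalent complex (25 nM final) in 10 mM Tris-HCl pH 8.0, 0.01% Tween 20, with AMC peptide substrate. Fluorescence (ex 340, em 450 nm) change over 15 min, room temperature; percent inhibition fitted to 4-parameter Hill equation.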
# [10] = Confirmatory screen NINDS Rhodamine qHTS for Zika virus inhibitors (AID 1347161); conditions: purified enzyme assay, Rhodamine110 substrate fluorescence, 15 min; series mostly up to 114 µM; also: potency is read from the fitted curve at half-maximal effect; nearly all actives have a fitted effect of over 60% in size
# Summary of the method: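 Each compound, titrated, sat 15 min with 25 nM linked protease before 1.5 microM Rhodamine110 substrate went in. Fluorescence gain over the next 15 min, in pH 8.0 Tris with Tween 20, gave Hill-fitted curves.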
# [11] = qHTS of pediatric cancer cell lines to identify multiple opportunities for drug repurposing: Primary screen for NB1643 cells (AID 1347099); conditions: NB1643 neuroblastoma viability, CellTiter-Glo luminescence, 48 h; series mostly up to 46 µM;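 also: plate controls were DMSO neutral control for no effect and bortezomib positive control for full effect; nearly all actives have a fitted effect of over 50% in size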
# Summary of the method: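 CRCs from 8- or 11-point titrations (lowest final 0.59 nM NPC, 0.78 nM MIPE). Cell viability: CellTiter-Glo after 48 h incubation, 15 min room-temperature development, luminescence imaging.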
# [12] = Cell Viability - LYMP2-005 (AID 967); conditions: LYMP2-005 lymphoblastoid cell viability; series mostly up to 92.2 µM; also: potency is read from the fitted curve at half-maximal effect
# Summary of the method: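 CellTiter-Glo luminescence (cellular ATP) read-out; LYMP2-005 lymphoblastoid cells, 2500/well, 5 h pre-incubation, then 24 h compound exposure at 37 C in complete medium. Tetraoctylammonium bromide positive control; AC50 by standard Hill fit.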
# [13] = qHTS assay for small molecule activators of the p53 signaling pathway (AID 651743; active = well fitted activation curve with a large enough effect in the signal ratio, not every such curve was filed as active; inconclusive = small, poorly fitted or top-dose-only effect, or a change in a side signal; the % refers to the signal ratio; also: potency is read from the fitted curve at half-maximal effect); conditions: HCT-116 p53RE-bla, beta-lactamase FRET ratio, 16 h; activation: active compounds read high
# Summary of the method: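 Agonist-mode quantitative HTS in HCT-116 cells carrying a p53-response-element beta-lactamase reporter; 16 h compound treatment at 37 C, then FRET substrate loading for 2 h at room temperature and fluorescence read.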
# [14] = qHTS of pediatric cancer cell lines to identify multiple opportunities for drug repurposing: Primary screen for Rh18 cells (AID 1347102); conditions: Rh18 rhabdomyosarcoma viability, CellTiter-Glo luminescence, 48 h; at 46 µM (top of the series); also: % is scaled to controls: 0 for no effect and ±100 for the full control effect; nearly all actives have a fitted effect of over 65% in size
# Summary of the method: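 Cells (500-1,000/well) in growth media were settled 5 h at 37 degrees C, then given compounds for 48 h. Viability was read as CellTiter-Glo luminescence. Primary runs used MIPE at 11 points (0.78 nM-46 µM) and NPC at 8 points (0.59 nM-46 µM); follow-ups used 11 points.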
# [15] = target: Methanococcus maripaludis chaperonin (MmCpn) (UniProt Q6LX38); assay: High-Throughput Screening for Modulators of Cytosolic Chaperonin Activity: MmCpn Primary Screen (AID 488978); conditions: Purified MmCpn ATPase activity, ADP HTRF detection, 10 min; series mostly up to 76.9 µM; also: potency is read from the fitted curve at half-maximal effect
# Summary of the method: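 MmCpn (50 nM final) was preincubated with compound 5 min at RT, then 30 uM ATP (final) was added and the reaction ran 10 min at 37C. ADP produced was detected by Transcreener HTRF (ex 320 nm; em 590/665 nm).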
# [16] = target: Peptidyl-prolyl cis-trans isomerase NIMA-interacting 1 (Homo sapiens) (UniProt Q13526); assay: qHTS Validation Assay to Find Inhibitors of Pin1 (AID 504536; active = well fitted inhibition curve with a large enough effect in the polarisation, with a control signal flat, not every such curve was filed as active; inconclusive = small, poorly fitted or top-dose-only effect, or effect the other way; the % refers to the polarisation; also: potency is read from the fitted curve at half-maximal effect); conditions: Pin1 fluorescence polarization peptide binding assay; series mostly up to 57.5 µM
# Summary of the method: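 Fluorescence polarization competition: compounds (titration) displace HiFluor-488-labeled Pin1-1b peptide from Pin1 (0.3 uM final) in pH 7.5 HEPES buffer with DTT, 10 min at room temperature; %Activity normalized to no-enzyme wells, curves fitted.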
# [17] = system: Zika virus NS2B-NS3 protease (unlinked); assay: Optimization of GU AMC qHTS for Zika virus inhibitors: Unlinked NS2B-NS3 protease assay (AID 1347151); conditions: recombinant ZIKV NS2B-NS3 protease, fluorogenic AMC substrate; series mostly up to 52.5 µM;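 also: 0% = no-inhibitor control and -100% = no-enzyme control; nearly all actives have a fitted effect of over 80% in size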
# Summary of the method: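 Noncovalent complex of NS2B hydrophilic domain and NS3 protease domain, 25 nM final, in 10 mM Tris-HCl pH 8.0, 0.01% Tween 20. AMC fluorescence change over 15 min at room temperature was fitted to a 4-parameter Hill equation.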
# [18] = qHTS to identify inhibitors of the type 1 interferon - major histocompatibility complex class I in skeletal muscle: primary screen against the NCATS LOPAC collection (AID 1347405); conditions: iHSKM muscle cells, IFN-b-induced MHC-I HiBiT luminescence, 24 h; series mostly up to 45.9 µM;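 also: lytic HiBiT luminescence reporting HLA-B protein level; % is scaled to controls: 0 for no effect and ±100 for the full control effect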
# Summary of the method: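 After 24 h at 37 C with compounds (7-point, 1:4.3 dilutions, 46 uM top final) plus 4 ng/ml IFN-beta, luminescence from lytic HiBiT detection was measured. HLA-B*08:01 in C25cl48 myoblasts carried an endogenous C-terminal HiBiT tag; medium lacked dexamethasone.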
# [19] = A High-Content qHTS Against Drug Library for the Identification of Small Molecules that Inhibit DYT1 Early Onset Primary Dystonia-Associated Cell Pathology (AID 1645839; calls by dose curve); conditions: HEK293 Flp-In EGFP-delE TorsinA, punctate imaging, 48 h; at 46.1 µM (top of the series)
# Summary of the method: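 Induced EGFP-delE TorsinA cells are imaged after 48 h of compound treatment. Punctate fusion-protein distribution gives the %pathology value, while nuclei counts flag toxicity. Wild-type EGFP-hTOR1A cells define the normal pattern.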
# [20] = target: Vitamin D3 receptor (Homo sapiens) (UniProt P11473); assay: qHTS assay for small molecule agonists of vitamin D receptor signaling (AID 588543; calls by dose curve; also: potency is read from the fitted curve at half-maximal effect); conditions: HEK293T VDR-UAS-bla, beta-lactamase ratio, 16 h; activation: at 76.8 µM (top of the series)
# Summary of the method: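 GeneBLAzer VDR-UAS-bla HEK293T cells in 2% charcoal-stripped FBS medium were dosed with compound titrations for 16 h at 37 °C; CCF4 β-lactamase readout (405 nm ex, 460/530 nm em). EC50 and efficacy from Hill fits, normalized to 50 nM calcitriol (100%) and DMSO (0%).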
compound,measurement,setting,value
CN[C@@H](C)[C@H](O)c1ccccc1,Potency,[1],"inconclusive: 22.4 µM [activator, single point]"
c1ccc(C2(c3ccccc3)CC2C2=NCCN2)cc1 (stereo not given),Potency,[2],inactive
same,Potency,[3],"inconclusive: 16.5 µM [inhibitor, single point]"
same,Potency,[4],"inconclusive: 25.1 µM [inhibitor, partial curve, poor fit]"
same,Potency,[5],inactive
same,Potency,[6],inactive
CN1[C@@H]2CC[C@H]1CC(OC1c3ccccc3CCc3ccccc31)C2 (stereo not given in full),"activity change, negative = inhibition",[7],inconclusive: 50.8% [activator]
same,Potency,[8],"inconclusive: 3.98 µM [activator, full curve]"
Cc1ccc2c(c1)C1CN(C)CCC1N2 (stereo not given),Potency,[9],"inconclusive: 17.6 µM [inhibitor, partial curve, poor fit]"
CN(C)[C@@H]1C(=O)C(C(N)=O)=C(O)[C@@]2(O)C(=O)C3=C(O)c4c(O)ccc(Cl)c4[C@@](C)(O)[C@H]3C[C@@H]12,Potency,[10],"inconclusive: 49.4 µM [inhibitor, partial curve]"
CC(C)NCC(O)c1ccc([N+](=O)[O-])cc1 (stereo not given),Potency,[11],inactive
OCCOc1ccccc1,Potency,[12],"inconclusive: 3.16 µM [cytotoxic, full curve, poor fit]"
same,Potency,[13],"inconclusive: 1410 µM [side channel, falling, single point]"
same,"activity change, negative = cytotoxic",[14],inactive: 17.2%
CCCN1CCC[C@H](c2cccc(O)c2)C1,Potency,[15],"inconclusive: 79.4 µM [inhibitor, single point]"
same,Potency,[16],"inconclusive: 8.49 µM [falling, partial curve, poor fit]"
same,Potency,[17],inactive
same,Potency,[18],inactive
CC(C)(O)C(Cl)(Cl)Cl,"% pathology change, negative = correction",[19],inactive: -1.66%
COC(=O)c1ccccc1C(=O)OC,Potency,[20],"inconclusive: 0.0025 µM [side channel, falling, full curve, poor fit]"

# Two neighbouring entries already listed, quoted:
compound,measurement,setting,value
c1ccc(C2(c3ccccc3)CC2C2=NCCN2)cc1 (stereo not given),Potency,[6],inactive
CN1[C@@H]2CC[C@H]1CC(OC1c3ccccc3CCc3ccccc31)C2 (stereo not given in full),"activity change, negative = inhibition",[7],inconclusive: 50.8% [activator]
